Results taken from patent US10662451B2, “Microorganisms and methods for the coproduction 1,4-butanediol and gamma-butyrolactone” (priority 2009, dated 2020).
Like-named read-outs stand apart in the source and are kept apart here.

System: C. acetobutylicum ATCC 824
Details: Schaedler broth with 10 mM 4-HB, anaerobic, 30° C.

OCCCCO [Gene 14-BDO, 1,4-butanediol]
14-BDO concentration (1 day): 0.1 mM | 14-BDO concentration (2 days): 0.9 mM | 14-BDO concentration (7 days): 1.5 mM
